These are literature values, as cited in US11446277B2, “Penetrating pain relief cream” (priority 2019, dated 2022).

Take `CCCCCc1cc(O)c2c(c1)OC(C)(C)[C@@H]1CCC(C)=C[C@@H]21` [THC, Δ9-tetrahydrocannabinol]: under “organic solvents, specifically lipids and alcohols”, the “solubility in most organic solvents” value is listed as “good solubility”. Further, the solubility in water entry (water) is “very low solubility”.
